The other results are listed elsewhere or left out.

Holding throughout (assay): protein microarray (ProtoArray v5.0), streptavidin-Alexa Fluor 647
What all share (conditions): 3'-biotin; 20 mM Tris (pH 7.5), 5 mM MgCl2, 100 mM KCl, 0.1% Tween-20, A/T-rich and random oligonucleotide blockers; temperature not stated; high values mean tight binding

Experiment [1] concerns Zinc finger protein castor homolog 1 (human).
The subject of experiment [2] is Zinc transporter 7 (human).
In experiment [3] the test system is cAMP-dependent protein kinase inhibitor gamma (human).
In experiment [4] the test system is cAMP-dependent protein kinase type I-beta regulatory subunit (human).
Experiment [5] deals with cAMP-dependent protein kinase type II-beta regulatory subunit (human).
Experiment [6] relates to cDNA FLJ30744 fis, clone FEBRA2000378. (human).
Experiment [7] has as its system cDNA clone IMAGE:2906290, complete cds (human).
Experiment [8] deals with cDNA clone IMAGE:4292790 (human).
Experiment [9] has as its system cDNA clone IMAGE:4396549 (human).
Experiment [10] relates to cDNA clone IMAGE:5263629 (human).

Turning to “GGGGACAGGGGTATGGGGAGGGG [G4-3 biotinylated (CtG)]”, the binding signal was -0.335 z-score in experiment [1]; -0.32 z-score in experiment [2]; -0.339 z-score in experiment [3]; -0.341 z-score in experiment [4]; -0.336 z-score in [5]; -0.326 z-score in experiment [6]. The binding signal was -0.337 z-score in experiment [7], -0.34 z-score in experiment [8], -0.338 z-score in [9] and -0.338 z-score in experiment [10].

These data come from paper PMC5996148.
